Molecules are shown by their SMILES.

Chains of the proteins cited; added tags and fusions are not shown.
UniProt Q01959, whole entry: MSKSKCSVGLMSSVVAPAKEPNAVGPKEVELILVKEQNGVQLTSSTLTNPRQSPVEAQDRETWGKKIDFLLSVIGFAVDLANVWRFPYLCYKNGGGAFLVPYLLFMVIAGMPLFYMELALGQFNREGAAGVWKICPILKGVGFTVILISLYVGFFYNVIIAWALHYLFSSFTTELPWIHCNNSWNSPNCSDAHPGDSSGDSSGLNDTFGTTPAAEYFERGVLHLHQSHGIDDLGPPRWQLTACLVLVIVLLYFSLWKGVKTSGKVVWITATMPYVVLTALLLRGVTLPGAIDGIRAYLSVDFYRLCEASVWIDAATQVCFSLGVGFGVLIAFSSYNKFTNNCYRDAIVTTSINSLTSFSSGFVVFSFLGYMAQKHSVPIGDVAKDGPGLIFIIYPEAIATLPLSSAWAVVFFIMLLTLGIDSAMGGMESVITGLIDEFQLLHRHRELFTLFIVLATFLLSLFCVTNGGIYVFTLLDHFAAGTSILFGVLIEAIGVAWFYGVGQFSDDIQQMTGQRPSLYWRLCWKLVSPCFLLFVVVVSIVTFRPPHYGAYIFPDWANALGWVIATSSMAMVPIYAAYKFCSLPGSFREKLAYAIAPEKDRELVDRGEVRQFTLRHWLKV

The assay has as its target T1, human dopamine transporter (hDAT) (Homo sapiens, UniProt Q01959).
T1 construct: gene SLC6A3
The experiment in a line: cell-based.

`Cc1ccccc1C(OCCN(C)C)c1ccccc1` (stereo not shown) [ORPH, orphenadrine]: the 50% inhibitory concentration (IC50) – broadly, the midpoint of a concentration-inhibition curve – was around 10 µM.

Values taken from paper PMC4460958, “Insights into the Modulation of Dopamine Transporter Function by Amphetamine, Orphenadrine, and Cocaine Binding” (Frontiers in Neurology, 2015).
